The values below come from the supplement of paper PMC6411743.

Chains of the proteins cited; added tags and fusions are not shown. Lines headed by an entry give the natural chain unless they say otherwise; changes in a name come on top.
UniProt Q6P6C2: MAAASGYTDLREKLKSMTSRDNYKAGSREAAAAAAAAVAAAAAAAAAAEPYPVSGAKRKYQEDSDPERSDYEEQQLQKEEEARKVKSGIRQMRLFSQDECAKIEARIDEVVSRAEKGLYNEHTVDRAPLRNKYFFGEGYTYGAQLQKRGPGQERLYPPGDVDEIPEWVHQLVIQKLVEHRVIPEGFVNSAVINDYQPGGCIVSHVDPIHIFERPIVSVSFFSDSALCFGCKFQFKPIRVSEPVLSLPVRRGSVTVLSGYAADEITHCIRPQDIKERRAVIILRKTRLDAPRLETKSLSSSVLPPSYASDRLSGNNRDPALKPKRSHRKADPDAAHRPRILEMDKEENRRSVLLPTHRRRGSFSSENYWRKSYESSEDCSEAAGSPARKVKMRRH
UniProt Q6ZNJ1: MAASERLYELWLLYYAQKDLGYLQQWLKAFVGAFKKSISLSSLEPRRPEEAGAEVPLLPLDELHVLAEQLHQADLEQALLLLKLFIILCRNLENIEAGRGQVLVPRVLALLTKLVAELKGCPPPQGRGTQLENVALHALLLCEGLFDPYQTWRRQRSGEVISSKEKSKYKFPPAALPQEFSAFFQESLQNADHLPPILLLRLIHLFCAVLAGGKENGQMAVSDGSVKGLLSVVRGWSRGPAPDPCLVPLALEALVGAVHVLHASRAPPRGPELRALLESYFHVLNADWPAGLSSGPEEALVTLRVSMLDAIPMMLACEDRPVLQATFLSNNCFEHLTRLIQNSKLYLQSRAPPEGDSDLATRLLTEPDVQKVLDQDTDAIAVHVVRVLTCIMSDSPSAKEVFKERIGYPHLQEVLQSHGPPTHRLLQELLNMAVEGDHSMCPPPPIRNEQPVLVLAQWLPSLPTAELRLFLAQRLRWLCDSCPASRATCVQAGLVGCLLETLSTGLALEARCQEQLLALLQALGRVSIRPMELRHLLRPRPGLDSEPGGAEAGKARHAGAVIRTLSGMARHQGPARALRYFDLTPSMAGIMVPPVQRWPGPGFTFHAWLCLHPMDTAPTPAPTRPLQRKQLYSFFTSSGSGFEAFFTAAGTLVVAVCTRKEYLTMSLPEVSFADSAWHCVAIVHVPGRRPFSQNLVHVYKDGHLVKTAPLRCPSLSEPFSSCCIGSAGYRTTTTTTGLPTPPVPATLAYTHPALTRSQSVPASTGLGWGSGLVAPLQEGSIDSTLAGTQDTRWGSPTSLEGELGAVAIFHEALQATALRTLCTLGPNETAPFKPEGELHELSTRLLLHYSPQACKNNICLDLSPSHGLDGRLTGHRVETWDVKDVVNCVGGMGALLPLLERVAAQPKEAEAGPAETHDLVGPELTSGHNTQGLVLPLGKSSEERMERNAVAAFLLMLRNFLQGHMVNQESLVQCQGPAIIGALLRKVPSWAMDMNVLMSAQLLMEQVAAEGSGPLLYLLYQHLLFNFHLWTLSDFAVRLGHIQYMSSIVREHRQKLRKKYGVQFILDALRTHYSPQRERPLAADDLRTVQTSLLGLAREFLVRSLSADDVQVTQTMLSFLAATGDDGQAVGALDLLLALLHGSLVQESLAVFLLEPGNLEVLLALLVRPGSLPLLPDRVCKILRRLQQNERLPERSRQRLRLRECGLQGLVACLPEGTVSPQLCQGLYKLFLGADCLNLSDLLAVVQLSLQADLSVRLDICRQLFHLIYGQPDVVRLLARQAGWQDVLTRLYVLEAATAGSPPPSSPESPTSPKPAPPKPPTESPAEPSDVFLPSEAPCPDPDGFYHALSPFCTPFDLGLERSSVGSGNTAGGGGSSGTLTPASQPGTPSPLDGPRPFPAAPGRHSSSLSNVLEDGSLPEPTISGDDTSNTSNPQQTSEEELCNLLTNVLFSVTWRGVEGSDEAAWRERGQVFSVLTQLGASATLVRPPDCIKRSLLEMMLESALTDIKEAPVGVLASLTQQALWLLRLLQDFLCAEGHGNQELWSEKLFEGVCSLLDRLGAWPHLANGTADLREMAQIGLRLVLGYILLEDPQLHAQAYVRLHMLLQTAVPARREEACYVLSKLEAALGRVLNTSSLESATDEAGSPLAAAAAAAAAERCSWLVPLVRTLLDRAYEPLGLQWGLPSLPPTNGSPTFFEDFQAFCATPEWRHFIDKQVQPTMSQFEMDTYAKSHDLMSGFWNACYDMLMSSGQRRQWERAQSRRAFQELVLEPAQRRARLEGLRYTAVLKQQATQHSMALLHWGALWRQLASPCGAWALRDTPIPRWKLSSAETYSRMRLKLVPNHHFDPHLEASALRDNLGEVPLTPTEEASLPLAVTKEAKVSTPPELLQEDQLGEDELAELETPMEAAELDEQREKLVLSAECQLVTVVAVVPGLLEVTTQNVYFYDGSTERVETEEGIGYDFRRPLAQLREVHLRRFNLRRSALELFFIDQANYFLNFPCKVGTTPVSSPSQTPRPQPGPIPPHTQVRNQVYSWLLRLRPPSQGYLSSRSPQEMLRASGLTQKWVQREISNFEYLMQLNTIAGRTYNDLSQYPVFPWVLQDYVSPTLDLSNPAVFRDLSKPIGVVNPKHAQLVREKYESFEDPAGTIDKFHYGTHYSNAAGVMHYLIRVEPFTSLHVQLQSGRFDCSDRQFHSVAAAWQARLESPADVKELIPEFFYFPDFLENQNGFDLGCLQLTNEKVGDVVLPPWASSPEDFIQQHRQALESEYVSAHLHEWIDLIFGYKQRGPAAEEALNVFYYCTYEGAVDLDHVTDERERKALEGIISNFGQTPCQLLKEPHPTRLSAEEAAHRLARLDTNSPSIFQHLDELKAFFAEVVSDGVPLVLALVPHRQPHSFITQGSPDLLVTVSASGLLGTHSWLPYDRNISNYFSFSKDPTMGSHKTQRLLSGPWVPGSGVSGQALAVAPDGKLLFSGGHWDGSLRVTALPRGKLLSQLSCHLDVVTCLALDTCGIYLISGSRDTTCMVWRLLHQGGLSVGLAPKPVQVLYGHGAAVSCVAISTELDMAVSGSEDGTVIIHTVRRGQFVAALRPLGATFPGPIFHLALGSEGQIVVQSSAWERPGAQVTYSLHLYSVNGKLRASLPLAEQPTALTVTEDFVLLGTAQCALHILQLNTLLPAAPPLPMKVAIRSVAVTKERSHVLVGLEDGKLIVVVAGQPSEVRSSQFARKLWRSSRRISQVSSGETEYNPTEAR
UniProt Q6MZP7: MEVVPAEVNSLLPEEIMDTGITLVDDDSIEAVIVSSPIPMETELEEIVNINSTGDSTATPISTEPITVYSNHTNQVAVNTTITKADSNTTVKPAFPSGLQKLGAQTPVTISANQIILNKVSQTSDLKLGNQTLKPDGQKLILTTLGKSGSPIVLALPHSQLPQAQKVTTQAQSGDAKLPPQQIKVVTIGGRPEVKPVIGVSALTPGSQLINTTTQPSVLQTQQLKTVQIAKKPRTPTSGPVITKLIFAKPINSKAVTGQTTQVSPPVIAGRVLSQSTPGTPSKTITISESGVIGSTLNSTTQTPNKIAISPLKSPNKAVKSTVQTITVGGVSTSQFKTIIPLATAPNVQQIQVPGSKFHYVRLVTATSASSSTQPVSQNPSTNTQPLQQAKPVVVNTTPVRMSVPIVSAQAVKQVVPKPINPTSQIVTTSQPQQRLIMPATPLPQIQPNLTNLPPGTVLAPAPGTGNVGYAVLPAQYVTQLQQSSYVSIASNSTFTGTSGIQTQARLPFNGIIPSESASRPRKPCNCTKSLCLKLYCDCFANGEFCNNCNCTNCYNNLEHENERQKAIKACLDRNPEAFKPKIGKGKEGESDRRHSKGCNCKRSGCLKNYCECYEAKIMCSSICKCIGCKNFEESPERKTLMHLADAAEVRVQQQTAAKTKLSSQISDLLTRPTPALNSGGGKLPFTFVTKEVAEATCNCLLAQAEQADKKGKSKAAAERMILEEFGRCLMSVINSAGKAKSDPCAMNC
UniProt Q5VW36: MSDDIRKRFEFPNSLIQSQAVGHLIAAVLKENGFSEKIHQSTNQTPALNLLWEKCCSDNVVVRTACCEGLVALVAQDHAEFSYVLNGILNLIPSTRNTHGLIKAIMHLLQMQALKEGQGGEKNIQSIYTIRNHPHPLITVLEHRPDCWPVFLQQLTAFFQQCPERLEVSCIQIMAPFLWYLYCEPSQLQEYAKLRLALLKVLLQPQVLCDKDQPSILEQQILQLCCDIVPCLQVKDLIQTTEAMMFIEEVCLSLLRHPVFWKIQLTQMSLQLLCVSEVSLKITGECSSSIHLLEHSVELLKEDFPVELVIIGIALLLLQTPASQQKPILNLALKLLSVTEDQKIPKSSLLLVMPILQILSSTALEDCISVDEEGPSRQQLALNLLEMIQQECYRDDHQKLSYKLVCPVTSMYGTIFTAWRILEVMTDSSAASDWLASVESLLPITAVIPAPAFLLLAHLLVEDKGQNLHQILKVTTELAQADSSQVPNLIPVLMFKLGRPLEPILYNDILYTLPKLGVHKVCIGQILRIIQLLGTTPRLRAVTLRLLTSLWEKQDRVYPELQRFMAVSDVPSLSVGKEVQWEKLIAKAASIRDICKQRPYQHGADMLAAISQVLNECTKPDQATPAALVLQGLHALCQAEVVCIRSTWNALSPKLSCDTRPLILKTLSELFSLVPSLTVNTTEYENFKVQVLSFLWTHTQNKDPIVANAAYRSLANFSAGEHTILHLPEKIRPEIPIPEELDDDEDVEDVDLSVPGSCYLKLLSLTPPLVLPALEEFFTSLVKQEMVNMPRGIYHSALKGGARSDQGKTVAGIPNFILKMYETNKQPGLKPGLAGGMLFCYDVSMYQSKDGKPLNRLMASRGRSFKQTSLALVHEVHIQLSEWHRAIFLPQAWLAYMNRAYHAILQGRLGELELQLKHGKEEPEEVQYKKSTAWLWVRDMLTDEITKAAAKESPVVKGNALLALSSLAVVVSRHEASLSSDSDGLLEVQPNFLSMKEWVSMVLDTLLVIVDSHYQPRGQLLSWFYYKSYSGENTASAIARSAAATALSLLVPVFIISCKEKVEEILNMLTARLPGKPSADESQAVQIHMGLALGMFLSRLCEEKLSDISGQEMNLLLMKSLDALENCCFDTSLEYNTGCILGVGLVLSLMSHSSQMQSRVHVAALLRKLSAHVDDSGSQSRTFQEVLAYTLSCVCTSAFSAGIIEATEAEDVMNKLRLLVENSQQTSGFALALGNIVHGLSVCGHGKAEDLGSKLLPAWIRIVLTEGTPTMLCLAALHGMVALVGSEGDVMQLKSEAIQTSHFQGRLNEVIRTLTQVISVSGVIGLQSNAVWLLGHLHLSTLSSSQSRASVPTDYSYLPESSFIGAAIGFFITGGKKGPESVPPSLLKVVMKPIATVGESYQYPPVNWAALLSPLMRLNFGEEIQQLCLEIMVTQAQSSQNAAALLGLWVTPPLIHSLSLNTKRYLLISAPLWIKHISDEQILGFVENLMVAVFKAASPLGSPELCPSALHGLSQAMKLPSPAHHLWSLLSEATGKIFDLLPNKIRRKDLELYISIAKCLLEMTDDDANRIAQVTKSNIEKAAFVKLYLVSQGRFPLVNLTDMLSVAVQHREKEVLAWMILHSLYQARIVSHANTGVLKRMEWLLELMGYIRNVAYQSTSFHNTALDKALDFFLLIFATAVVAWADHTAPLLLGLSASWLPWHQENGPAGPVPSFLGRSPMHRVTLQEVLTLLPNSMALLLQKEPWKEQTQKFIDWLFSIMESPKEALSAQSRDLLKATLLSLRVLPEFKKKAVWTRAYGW
UniProt Q68CQ4: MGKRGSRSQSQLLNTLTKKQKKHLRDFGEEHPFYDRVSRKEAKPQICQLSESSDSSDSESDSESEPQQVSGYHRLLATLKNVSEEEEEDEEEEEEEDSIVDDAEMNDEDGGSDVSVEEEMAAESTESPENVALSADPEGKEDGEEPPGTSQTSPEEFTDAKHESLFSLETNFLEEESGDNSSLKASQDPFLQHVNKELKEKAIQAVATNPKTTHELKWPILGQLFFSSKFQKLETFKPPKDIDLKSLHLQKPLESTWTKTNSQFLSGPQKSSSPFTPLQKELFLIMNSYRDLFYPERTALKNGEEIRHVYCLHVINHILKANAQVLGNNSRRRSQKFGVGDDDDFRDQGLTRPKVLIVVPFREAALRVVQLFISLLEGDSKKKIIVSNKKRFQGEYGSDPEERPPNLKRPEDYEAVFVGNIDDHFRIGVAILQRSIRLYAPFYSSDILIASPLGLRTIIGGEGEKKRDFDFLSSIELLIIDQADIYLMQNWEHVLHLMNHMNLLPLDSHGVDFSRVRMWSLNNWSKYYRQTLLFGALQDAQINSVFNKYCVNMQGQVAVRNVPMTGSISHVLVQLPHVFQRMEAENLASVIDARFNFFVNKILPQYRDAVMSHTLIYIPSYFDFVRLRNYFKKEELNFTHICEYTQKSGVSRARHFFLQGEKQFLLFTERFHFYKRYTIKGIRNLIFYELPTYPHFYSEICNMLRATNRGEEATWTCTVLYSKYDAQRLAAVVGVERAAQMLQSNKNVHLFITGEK
UniProt Q5VUM1: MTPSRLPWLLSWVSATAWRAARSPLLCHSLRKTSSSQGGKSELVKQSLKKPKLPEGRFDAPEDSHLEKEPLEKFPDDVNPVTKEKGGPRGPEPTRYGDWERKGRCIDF

Compound in the assay: Nc1ncnc2c1ncn2[C@@H]1O[C@H](COP(=O)(O)OP(=O)(O)NP(=O)(O)O)[C@@H](O)[C@H]1O [adenylyl imidodiphosphate]
Put plainly: NP40-soluble protein abundance relative to vehicle (solubility fold change) (ratio); higher = more soluble protein in presence of AMP-PNP. The procedure, abridged: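 In three independent experiments, Jurkat crude lysate made by Dounce homogenisation was treated for 10 min at room temperature and then 3 min at 37 °C with eight concentrations ranging from 0.1 to 10 mM. It was then solubilised with 0.8% NP40 plus benzonase for 60 min at 4 °C and ultracentrifuged. The supernatant was TMT-labelled for LC-MS/MS, and each value is the fold change against the detergent-processed vehicle for the same replicate, using vsn-normalised intensities.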

± gives the standard deviation of the averaged measurements. The list shows a part of the results, in another mix than the full data. Most entries show no effect beyond the scatter of the controls.

With UniProt Q7Z2Z2, the NP40-soluble protein abundance by setting is: (concentration: 0.1mM) 1.011 ± 0.0082; (concentration: 0.5mM) 1.014 ± 0.0078.
On the same counts, the results for UniProt Q7L2H7 are 1.01 ± 0.032 and 1.03 ± 0.05.
The matching figures for UniProt Q63HQ0: 0.9548 ± 0.001 and 0.957 ± 0.011.
On the same counts, the results for MRM1 (UniProt Q6IN84) are 0.9899 ± 0.0091 and 1.01 ± 0.033.
On to SLC27A4 (UniProt Q6P1M0), for which the NP40-soluble protein abundance turned out to be 1.01 ± 0.016 (concentration: 0.1mM) and 0.9959 ± 0.0083 (concentration: 0.5mM).
For the target UniProt Q6P444, the NP40-soluble protein abundance (concentration: 0.1mM) was determined as 1.03 ± 0.013 and the NP40-soluble protein abundance (concentration: 0.5mM) amounted to 1.01 ± 0.018.
For UniProt Q7Z2K8 and related entries, the NP40-soluble protein abundance is, setting by setting: (concentration: 0.1mM) 1.019 ± 0.01; (concentration: 0.5mM) 0.924 ± 0.054.
On the same counts, the results for DARS2 (UniProt Q6PI48) are 1.01 ± 0.052 and 0.968 ± 0.082.
The matching figures for UniProt Q659A1: 0.999 ± 0.012 and 1.01 ± 0.037.
The matching figures for MRPL14 (UniProt Q6P1L8): 1.01 ± 0.033 and 1.01 ± 0.046.
As for UniProt Q66K14-2|Q66K14, the NP40-soluble protein abundance reads like this: (concentration: 0.1mM) 0.9742 ± 0.0056; (concentration: 0.5mM) 0.9591 ± 0.0063.
The matching figures for UniProt Q6XQN6 and related entries: 0.975 ± 0.027 and 0.977 ± 0.019.
On the same counts, the results for UniProt Q6P1X6 and related entries are 1 ± 0.016 and 1.03 ± 0.023.
On the same counts, the results for SLC25A24 (UniProt Q6NUK1) are 0.986 ± 0.015 and 1.01 ± 0.048.
For UniProt Q6P6C2 and related entries, the NP40-soluble protein abundance (concentration: 0.1mM) amounted to 1.04 ± 0.059 and the NP40-soluble protein abundance (concentration: 0.5mM) was found to be 1.04 ± 0.067.
The matching figures for UniProt Q7Z406 and related entries: 1.02 ± 0.044 and 1.05 ± 0.079.
As to NXN (UniProt Q6DKJ4), the NP40-soluble protein abundance (concentration: 0.1mM) worked out at 1 ± 0.027 and the NP40-soluble protein abundance (concentration: 0.5mM) amounted to 0.9985 ± 0.0053.
On the same counts, the results for UniProt Q6ZNJ1 and related entries are 1.02 ± 0.021 and 0.987 ± 0.037.
On the same counts, the results for UniProt Q7L592 are 0.988 ± 0.014 and 0.996 ± 0.013.
On the same counts, the results for PHLDB3 (UniProt Q6NSJ2) are 1.02 ± 0.015 and 1.03 ± 0.024.
As for UniProt Q68CP9 and related entries, the NP40-soluble protein abundance was 1.05 ± 0.014 (concentration: 0.1mM) and 1.02 ± 0.035 (concentration: 0.5mM).
On the same counts, the results for TYW3 (UniProt Q6IPR3) are 1.02 ± 0.065 and 1.01 ± 0.042.
On the same counts, the results for UniProt Q7Z3D6-2 are 1 ± 0.017 and 1.02 ± 0.026.
On the same counts, the results for UniProt Q6ZT12 and related entries are 1.03 ± 0.029 and 0.984 ± 0.012.
Regarding UniProt Q765P7, the NP40-soluble protein abundance is, setting by setting: (concentration: 0.1mM) 1.01 ± 0.028; (concentration: 0.5mM) 1.01 ± 0.036.
On to UniProt Q6YP21 and related entries, for which the NP40-soluble protein abundance runs as follows: (concentration: 0.1mM) 1.03 ± 0.018; (concentration: 0.5mM) 0.986 ± 0.086.
On the same counts, the results for UniProt Q7Z4G4 and related entries are 0.973 ± 0.036 and 0.974 ± 0.071.
The matching figures for LIN54 (UniProt Q6MZP7): 0.984 ± 0.023 and 1.01 ± 0.054.
On the same counts, the results for NUFIP2 (UniProt Q7Z417) are 1 ± 0.032 and 1.06 ± 0.049.
As to UniProt Q6ZVM7 and related entries, the NP40-soluble protein abundance (concentration: 0.1mM) came out at 0.983 ± 0.042 and the NP40-soluble protein abundance (concentration: 0.5mM) was 0.983 ± 0.033.
On the same counts, the results for UHRF1BP1 (UniProt Q6BDS2) are 0.998 ± 0.025 and 0.97 ± 0.05.
On the same counts, the results for UniProt Q5VTB9 and related entries are 0.984 ± 0.037 and 1.02 ± 0.022.
On the same counts, the results for USP34 (UniProt Q70CQ2) are 0.98 ± 0.038 and 0.938 ± 0.054.
As for UniProt Q6NYC1 and related entries, the NP40-soluble protein abundance reads like this: (concentration: 0.1mM) 1.03 ± 0.011; (concentration: 0.5mM) 1.01 ± 0.02.
Take AAGAB (UniProt Q6PD74): the NP40-soluble protein abundance by setting is: (concentration: 0.1mM) 1.03 ± 0.017; (concentration: 0.5mM) 1.04 ± 0.034.
UniProt Q6Y7W6 and related entries: the NP40-soluble protein abundance reads like this: (concentration: 0.1mM) 0.974 ± 0.018; (concentration: 0.5mM) 0.989 ± 0.049.
Turning to CEP135 (UniProt Q66GS9), the NP40-soluble protein abundance is, setting by setting: (concentration: 0.1mM) 0.976 ± 0.028; (concentration: 0.5mM) 0.942 ± 0.038.
The matching figures for UniProt Q6UXN9 and related entries: 1.06 ± 0.025 and 1 ± 0.094.
For UniProt Q68DK2 and related entries, the NP40-soluble protein abundance (concentration: 0.1mM) is 1.027 ± 0.0066 and the NP40-soluble protein abundance (concentration: 0.5mM) came out at 1.01 ± 0.031.
The matching figures for UniProt Q5VWP2: 1 ± 0.04 and 1.02 ± 0.031.
Consider FBXO38 (UniProt Q6PIJ6), for which the NP40-soluble protein abundance was 0.988 ± 0.017 (concentration: 0.1mM) and 0.979 ± 0.034 (concentration: 0.5mM).
On the same counts, the results for HS2ST1 (UniProt Q7LGA3) are 1.03 ± 0.053 and 1.04 ± 0.028.
The matching figures for RINT1 (UniProt Q6NUQ1): 0.958 ± 0.038 and 0.9988 ± 0.0029.
As for UniProt Q5VW36 and related entries, the NP40-soluble protein abundance was determined as 1 ± 0.02 (concentration: 0.1mM) and 0.959 ± 0.04 (concentration: 0.5mM).
On the same counts, the results for UniProt Q6KCM7 and related entries are 1.069 ± 0.0042 and 1.07 ± 0.046.
On the same counts, the results for UniProt Q7Z3E2 are 0.984 ± 0.041 and 0.978 ± 0.021.
On the same counts, the results for TAF2 (UniProt Q6P1X5) are 1 ± 0.018 and 0.978 ± 0.038.
For the target UniProt Q6NS38 and related entries, the NP40-soluble protein abundance runs as follows: (concentration: 0.1mM) 0.981 ± 0.0085; (concentration: 0.5mM) 1.02 ± 0.037.
The matching figures for INTS5 (UniProt Q6P9B9): 1.03 ± 0.033 and 1.03 ± 0.024.
Turning to UniProt Q6IA86 and related entries, the NP40-soluble protein abundance stood at 1.05 ± 0.031 (concentration: 0.1mM) and 0.988 ± 0.11 (concentration: 0.5mM).
The matching figures for “UniProt Q6P4E1-2|Q6P4E1-4|Q6P4E1-5|Q6P4E1”: 0.977 ± 0.047 and 1 ± 0.071.
The matching figures for UniProt Q6P1N0 and related entries: 0.991 ± 0.016 and 0.9781 ± 0.0094.
On the same counts, the results for UniProt Q6ULP2 and related entries are 0.972 ± 0.022 and 0.977 ± 0.043.
As to TAOK1 (UniProt Q7L7X3), the NP40-soluble protein abundance (concentration: 0.1mM) turned out to be 1.01 ± 0.033 and the NP40-soluble protein abundance (concentration: 0.5mM) was found to be 1.02 ± 0.016.
On the same counts, the results for UniProt Q712K3 are 0.999 ± 0.046 and 1.04 ± 0.094.
The matching figures for UniProt Q68CQ4: 1.03 ± 0.031 and 1.02 ± 0.041.
On the same counts, the results for UniProt Q7Z2W9 and related entries are 1.05 ± 0.016 and 1.03 ± 0.054.
Turning to SDHAF4 (UniProt Q5VUM1), the NP40-soluble protein abundance is, setting by setting: (concentration: 0.1mM) 0.985 ± 0.028; (concentration: 0.5mM) 0.9811 ± 0.0076.
With UniProt Q70Z53 and related entries, the NP40-soluble protein abundance is, setting by setting: (concentration: 0.1mM) 0.968 ± 0.034; (concentration: 0.5mM) 0.982 ± 0.054.
On the same counts, the results for UniProt Q68D10 and related entries are 0.9796 ± 0.0022 and 1.02 ± 0.031.
